According to the supplement of paper PMC10032668:
± gives the standard deviation of the averaged measurements. The list shows a part of the results. The list holds hits alone, and they repeat only in part.

By UniProt entry, the sequences of proteins in these tests, tags left out.
INCENP, Q9NQS7, UniProt Q9NQS7, whole entry: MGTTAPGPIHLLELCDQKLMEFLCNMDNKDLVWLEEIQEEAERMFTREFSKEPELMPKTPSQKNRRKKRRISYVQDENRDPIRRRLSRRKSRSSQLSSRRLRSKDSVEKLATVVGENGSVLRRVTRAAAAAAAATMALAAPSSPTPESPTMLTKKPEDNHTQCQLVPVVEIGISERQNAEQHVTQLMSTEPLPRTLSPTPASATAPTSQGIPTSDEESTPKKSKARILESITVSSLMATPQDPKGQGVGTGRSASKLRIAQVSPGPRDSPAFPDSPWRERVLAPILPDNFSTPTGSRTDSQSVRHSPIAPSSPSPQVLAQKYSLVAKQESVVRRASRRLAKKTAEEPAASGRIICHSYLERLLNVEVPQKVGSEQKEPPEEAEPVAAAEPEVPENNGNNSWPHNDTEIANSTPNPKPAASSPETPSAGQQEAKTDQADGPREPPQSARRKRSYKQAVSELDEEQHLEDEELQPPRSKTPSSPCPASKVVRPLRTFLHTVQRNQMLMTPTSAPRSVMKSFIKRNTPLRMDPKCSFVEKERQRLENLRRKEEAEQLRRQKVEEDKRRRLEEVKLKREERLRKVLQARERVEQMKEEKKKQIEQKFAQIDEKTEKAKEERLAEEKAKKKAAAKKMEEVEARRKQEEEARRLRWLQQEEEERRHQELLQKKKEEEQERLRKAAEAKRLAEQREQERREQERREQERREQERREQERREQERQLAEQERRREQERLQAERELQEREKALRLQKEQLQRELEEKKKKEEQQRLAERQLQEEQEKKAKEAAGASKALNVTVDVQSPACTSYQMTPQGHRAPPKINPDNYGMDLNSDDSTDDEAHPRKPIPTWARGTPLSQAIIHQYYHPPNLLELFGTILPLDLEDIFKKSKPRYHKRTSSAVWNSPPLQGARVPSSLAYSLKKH
KHDRBS1, Q07666, UniProt Q07666, whole entry: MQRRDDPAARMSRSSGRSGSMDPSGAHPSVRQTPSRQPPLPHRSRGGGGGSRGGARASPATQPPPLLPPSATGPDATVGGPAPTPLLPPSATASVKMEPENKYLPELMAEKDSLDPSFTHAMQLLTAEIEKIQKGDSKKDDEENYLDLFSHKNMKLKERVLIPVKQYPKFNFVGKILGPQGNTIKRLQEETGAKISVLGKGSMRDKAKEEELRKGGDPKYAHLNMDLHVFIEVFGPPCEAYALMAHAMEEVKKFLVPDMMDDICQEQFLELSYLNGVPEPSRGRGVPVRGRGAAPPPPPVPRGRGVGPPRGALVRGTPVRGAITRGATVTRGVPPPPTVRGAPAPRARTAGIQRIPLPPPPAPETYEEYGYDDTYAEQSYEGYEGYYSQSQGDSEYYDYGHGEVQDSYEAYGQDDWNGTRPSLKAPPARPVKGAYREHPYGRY
MAPK1, P28482, UniProt P28482, whole entry: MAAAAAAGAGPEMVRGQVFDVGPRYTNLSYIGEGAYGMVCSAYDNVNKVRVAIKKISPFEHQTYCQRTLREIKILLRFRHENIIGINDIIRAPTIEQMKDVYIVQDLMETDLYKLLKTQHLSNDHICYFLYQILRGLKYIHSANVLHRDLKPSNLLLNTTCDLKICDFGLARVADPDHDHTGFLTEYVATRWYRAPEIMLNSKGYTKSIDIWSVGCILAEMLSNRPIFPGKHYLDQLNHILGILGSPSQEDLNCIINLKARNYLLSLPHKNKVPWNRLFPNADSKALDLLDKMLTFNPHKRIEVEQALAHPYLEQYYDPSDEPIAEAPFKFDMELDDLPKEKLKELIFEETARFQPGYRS
MORF4L1, Q9UBU8, UniProt Q9UBU8, whole entry: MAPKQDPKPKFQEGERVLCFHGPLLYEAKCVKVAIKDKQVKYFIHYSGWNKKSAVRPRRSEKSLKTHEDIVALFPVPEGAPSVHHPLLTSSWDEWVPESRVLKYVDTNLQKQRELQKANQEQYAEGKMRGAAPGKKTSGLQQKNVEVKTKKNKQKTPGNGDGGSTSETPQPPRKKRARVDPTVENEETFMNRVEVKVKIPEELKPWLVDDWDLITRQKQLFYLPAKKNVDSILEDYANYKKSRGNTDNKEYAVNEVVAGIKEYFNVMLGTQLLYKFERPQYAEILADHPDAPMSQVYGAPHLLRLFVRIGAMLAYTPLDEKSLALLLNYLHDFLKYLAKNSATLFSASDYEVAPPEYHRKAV
MORF4L2, Q15014, UniProt Q15014, whole entry: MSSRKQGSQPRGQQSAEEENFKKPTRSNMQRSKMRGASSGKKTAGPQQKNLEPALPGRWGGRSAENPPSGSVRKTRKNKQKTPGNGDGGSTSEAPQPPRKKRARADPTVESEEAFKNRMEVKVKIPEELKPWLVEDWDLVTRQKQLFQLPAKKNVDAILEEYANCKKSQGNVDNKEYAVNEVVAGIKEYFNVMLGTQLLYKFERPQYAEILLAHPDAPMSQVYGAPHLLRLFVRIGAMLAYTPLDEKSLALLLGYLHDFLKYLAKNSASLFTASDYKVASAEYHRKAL
MTHFD1L, Q6UB35, UniProt Q6UB35, whole entry: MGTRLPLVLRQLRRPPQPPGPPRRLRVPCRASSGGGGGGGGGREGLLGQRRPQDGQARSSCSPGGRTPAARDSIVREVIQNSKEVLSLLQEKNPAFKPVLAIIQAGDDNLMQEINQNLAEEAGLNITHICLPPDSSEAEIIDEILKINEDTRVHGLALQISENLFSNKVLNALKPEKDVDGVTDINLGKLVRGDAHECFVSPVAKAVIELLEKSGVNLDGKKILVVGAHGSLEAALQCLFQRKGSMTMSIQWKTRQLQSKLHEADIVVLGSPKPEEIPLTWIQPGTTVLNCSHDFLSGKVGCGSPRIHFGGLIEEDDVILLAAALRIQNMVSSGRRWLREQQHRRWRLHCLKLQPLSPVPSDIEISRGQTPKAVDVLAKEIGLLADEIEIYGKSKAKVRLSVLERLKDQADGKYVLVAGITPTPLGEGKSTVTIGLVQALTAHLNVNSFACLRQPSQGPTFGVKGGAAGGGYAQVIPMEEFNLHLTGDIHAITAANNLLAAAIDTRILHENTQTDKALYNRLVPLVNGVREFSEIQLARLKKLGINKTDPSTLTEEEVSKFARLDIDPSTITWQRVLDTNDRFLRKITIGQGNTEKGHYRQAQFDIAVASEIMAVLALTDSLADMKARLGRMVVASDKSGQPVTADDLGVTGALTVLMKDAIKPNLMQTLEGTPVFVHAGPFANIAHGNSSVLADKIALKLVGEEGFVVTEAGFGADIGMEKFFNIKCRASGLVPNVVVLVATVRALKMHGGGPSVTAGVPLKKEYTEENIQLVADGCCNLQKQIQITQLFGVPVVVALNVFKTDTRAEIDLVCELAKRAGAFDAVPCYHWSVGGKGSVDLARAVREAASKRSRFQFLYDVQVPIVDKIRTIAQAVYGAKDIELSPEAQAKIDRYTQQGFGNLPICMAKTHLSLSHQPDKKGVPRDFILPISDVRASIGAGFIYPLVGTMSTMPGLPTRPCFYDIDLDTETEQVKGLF
NUDT21, O43809, UniProt O43809, whole entry: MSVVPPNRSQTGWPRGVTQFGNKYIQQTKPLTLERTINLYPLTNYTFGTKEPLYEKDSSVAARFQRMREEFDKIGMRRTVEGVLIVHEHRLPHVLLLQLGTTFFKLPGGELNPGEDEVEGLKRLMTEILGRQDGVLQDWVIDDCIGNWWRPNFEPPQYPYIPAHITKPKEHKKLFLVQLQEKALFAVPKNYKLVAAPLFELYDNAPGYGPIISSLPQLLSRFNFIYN
NUP153, P49790, UniProt P49790, whole entry: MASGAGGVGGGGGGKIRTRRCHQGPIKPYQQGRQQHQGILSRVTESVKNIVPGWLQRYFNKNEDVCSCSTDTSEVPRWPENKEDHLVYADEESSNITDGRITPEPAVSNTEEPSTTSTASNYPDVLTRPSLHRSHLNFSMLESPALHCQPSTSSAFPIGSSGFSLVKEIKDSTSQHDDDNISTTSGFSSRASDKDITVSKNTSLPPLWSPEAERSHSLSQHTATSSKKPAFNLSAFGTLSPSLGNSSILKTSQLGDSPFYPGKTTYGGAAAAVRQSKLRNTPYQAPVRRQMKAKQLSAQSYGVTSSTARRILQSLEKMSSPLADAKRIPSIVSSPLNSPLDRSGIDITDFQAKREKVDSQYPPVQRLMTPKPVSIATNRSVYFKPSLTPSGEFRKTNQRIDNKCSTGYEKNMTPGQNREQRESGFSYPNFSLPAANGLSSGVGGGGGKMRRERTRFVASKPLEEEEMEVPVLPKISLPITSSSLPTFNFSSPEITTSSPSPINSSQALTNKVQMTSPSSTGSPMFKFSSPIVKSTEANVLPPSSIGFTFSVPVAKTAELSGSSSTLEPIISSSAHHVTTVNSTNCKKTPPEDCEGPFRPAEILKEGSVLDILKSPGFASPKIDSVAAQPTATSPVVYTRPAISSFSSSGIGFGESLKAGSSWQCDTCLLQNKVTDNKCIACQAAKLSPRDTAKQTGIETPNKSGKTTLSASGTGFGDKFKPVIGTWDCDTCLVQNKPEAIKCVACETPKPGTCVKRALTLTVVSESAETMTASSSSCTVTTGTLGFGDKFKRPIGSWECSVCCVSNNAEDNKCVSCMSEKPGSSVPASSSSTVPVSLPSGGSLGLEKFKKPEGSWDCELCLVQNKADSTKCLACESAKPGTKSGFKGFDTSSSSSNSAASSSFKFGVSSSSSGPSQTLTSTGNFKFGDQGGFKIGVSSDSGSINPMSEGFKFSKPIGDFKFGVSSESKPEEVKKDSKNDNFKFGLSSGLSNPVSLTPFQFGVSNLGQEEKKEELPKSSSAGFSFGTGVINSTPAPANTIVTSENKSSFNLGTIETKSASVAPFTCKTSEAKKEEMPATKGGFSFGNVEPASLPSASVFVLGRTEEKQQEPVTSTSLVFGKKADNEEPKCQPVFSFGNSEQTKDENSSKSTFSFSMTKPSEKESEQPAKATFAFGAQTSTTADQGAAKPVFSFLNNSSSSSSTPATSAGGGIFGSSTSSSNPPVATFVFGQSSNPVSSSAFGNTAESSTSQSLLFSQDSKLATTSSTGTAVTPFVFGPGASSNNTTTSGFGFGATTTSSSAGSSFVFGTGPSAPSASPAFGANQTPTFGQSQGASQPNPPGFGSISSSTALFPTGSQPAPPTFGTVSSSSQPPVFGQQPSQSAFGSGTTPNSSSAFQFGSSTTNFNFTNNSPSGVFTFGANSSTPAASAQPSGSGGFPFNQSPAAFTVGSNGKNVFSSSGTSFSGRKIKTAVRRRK
NUTF2, P61970, UniProt P61970, whole entry: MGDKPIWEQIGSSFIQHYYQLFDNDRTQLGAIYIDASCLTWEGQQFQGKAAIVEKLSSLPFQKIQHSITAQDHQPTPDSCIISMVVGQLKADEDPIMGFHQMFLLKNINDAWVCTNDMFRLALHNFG
PDLIM7, Q9NR12, UniProt Q9NR12, whole entry: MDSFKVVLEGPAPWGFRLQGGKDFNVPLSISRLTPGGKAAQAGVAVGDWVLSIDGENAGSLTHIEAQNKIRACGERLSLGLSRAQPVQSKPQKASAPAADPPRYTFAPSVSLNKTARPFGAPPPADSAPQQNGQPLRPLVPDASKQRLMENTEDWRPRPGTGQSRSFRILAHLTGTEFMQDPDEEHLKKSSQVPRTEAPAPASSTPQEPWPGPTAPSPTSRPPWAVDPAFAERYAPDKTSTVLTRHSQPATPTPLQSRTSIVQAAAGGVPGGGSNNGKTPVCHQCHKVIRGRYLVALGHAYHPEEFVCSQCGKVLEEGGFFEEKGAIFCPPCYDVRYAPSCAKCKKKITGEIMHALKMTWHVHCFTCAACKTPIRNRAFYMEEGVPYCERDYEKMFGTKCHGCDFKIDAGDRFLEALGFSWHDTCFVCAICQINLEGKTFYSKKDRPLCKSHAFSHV
PIN1, Q13526, UniProt Q13526, whole entry: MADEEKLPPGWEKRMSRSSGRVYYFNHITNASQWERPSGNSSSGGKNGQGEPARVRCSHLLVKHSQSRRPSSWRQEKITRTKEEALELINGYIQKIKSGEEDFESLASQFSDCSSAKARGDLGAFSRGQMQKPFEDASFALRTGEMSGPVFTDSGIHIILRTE
PLK1, P53350, UniProt P53350, whole entry: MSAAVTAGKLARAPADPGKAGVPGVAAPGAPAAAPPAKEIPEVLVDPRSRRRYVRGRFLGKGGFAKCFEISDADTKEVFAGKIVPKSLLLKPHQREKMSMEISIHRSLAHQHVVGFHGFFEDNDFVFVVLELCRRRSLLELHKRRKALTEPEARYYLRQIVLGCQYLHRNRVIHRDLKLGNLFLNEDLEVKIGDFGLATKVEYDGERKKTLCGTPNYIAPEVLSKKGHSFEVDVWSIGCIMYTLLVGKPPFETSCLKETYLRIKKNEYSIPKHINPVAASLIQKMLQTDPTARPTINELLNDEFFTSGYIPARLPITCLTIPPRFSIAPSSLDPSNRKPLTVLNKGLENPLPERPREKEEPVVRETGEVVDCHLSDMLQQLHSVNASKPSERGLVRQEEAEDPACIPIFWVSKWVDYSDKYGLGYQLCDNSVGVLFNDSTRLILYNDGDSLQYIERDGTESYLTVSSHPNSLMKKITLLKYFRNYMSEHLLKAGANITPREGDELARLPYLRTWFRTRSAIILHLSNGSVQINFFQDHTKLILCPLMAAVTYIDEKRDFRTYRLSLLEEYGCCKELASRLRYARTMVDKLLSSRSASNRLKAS

How the values were obtained:
Test in all cases: PRISMA enrichment of interactor (LFQ) in peptide spot vs all other peptide spots (log2 fold change); higher = stronger / more specific binding of the interactor to the peptide
[1] = molecular target: HMGB2, P26583
Description: (§1)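 PRISMA: 221 full-length sORF-encoded peptides (3-15 aa), plus SOS1/GLUT1 control peptides, were spot-synthesized on cellulose membranes in triplicate. Membranes were incubated with HEK293T lysate, and bound proteins were identified by LC-MS/MS with LFQ. Enrichment is the log2 fold change versus all other peptide spots; only significant interactors are listed (cutoff c=6, x0=2.8).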

[2] = molecular target: HNRNPA0, Q13151
Description: as §1

[3] = molecular target: HNRNPA1, P09651
Description: as §1

[4] = molecular target: HNRNPA3, P51991
Description: as §1

[5] = molecular target: HOMER1, Q86YM7
Description: as §1

[6] = molecular target: IBA57, Q5T440
Description: as §1

[7] = molecular target: INCENP, Q9NQS7
Description: as §1

[8] = molecular target: ISCU, Q9H1K1
Description: as §1

[9] = molecular target: KHDRBS1, Q07666
Description: as §1

[10] = molecular target: KHSRP, Q92945
Description: as §1

[11] = molecular target: KIF2A, O00139
Description: as §1

[12] = molecular target: KIF2C, Q99661
Description: as §1

[13] = molecular target: KIF4A, O95239
Description: as §1

[14] = molecular target: LENG1, Q96BZ8
Description: as §1

[15] = molecular target: LRPAP1, P30533
Description: as §1

[16] = molecular target: LSM14A, Q8ND56
Description: as §1

[17] = molecular target: LSM14B, Q9BX40
Description: as §1

[18] = molecular target: MAPK1, P28482
Description: as §1

[19] = molecular target: MAZ, P56270
Description: as §1

[20] = molecular target: MBNL1, Q9NR56
Description: as §1

[21] = molecular target: MCCC2, Q9HCC0
Description: as §1

[22] = molecular target: MCM3, P25205
Description: as §1

[23] = molecular target: MCM5, P33992
Description: as §1

[24] = molecular target: MCM7, P33993
Description: as §1

[25] = molecular target: MED12, Q93074
Description: as §1

[26] = molecular target: MED15, Q96RN5
Description: as §1

[27] = molecular target: MORF4L1, Q9UBU8
Description: as §1

[28] = molecular target: MORF4L2, Q15014
Description: as §1

[29] = molecular target: MPG, P29372
Description: as §1

[30] = molecular target: MTHFD1L, Q6UB35
Description: as §1

[31] = molecular target: MTREX, P42285
Description: as §1

[32] = molecular target: NDUFAF7, Q7L592
Description: as §1

[33] = molecular target: NIFK, Q9BYG3
Description: as §1

[34] = molecular target: NMD3, Q96D46
Description: as §1

[35] = molecular target: NME4, O00746
Description: as §1

[36] = molecular target: NOL10, Q9BSC4
Description: as §1

[37] = substrate: NONO, Q15233
Description: as §1

[38] = substrate: NOSIP, Q9Y314
Description: as §1

[39] = molecular target: NTHL1, P78549
Description: as §1

[40] = molecular target: NUDT16, Q96DE0
Description: as §1

[41] = molecular target: NUDT16L1, Q9BRJ7
Description: as §1

[42] = molecular target: NUDT21, O43809
Description: as §1

[43] = molecular target: NUFIP2, Q7Z417
Description: as §1

[44] = molecular target: NUP153, P49790
Description: as §1

[45] = molecular target: NUSAP1, Q9BXS6
Description: as §1

[46] = molecular target: NUTF2, P61970
Description: as §1

[47] = molecular target: NXF1, Q9UBU9
Description: as §1

[48] = molecular target: NXT1, Q9UKK6
Description: as §1

[49] = molecular target: OGT, O15294
Description: as §1

[50] = molecular target: PAK4, O96013
Description: as §1

[51] = molecular target: PDCD6, O75340
Description: as §1

[52] = molecular target: PDF, Q9HBH1
Description: as §1

[53] = molecular target: PDLIM7, Q9NR12
Description: as §1

[54] = molecular target: PIN1, Q13526
Description: as §1

[55] = molecular target: PINX1, Q96BK5
Description: as §1

[56] = molecular target: PLK1, P53350
Description: as §1

[57] = molecular target: POLDIP3, Q9BY77
Description: as §1

[58] = molecular target: POLRMT, O00411
Description: as §1

[59] = substrate: PPIF, P30405
Description: as §1

[60] = molecular target: PPIH, O43447
Description: as §1

[61] = molecular target: PPIL1, Q9Y3C6
Description: as §1

[62] = molecular target: PPIL2, Q13356
Description: as §1

[63] = molecular target: PPP1R10, Q96QC0
Description: as §1

[64] = molecular target: PRPF3, O43395
Description: as §1

[65] = molecular target: PRPF4, O43172
Description: as §1

[66] = molecular target: PRRC2A, P48634
Description: as §1

[67] = molecular target: PRRC2B, Q5JSZ5
Description: as §1

[68] = molecular target: PRRC2C, Q9Y520
Description: as §1

[69] = molecular target: PSPC1, Q8WXF1
Description: as §1

[70] = molecular target: PYCR1, P32322
Description: as §1

[71] = molecular target: PYCR2, Q96C36
Description: as §1

[72] = molecular target: RACGAP1, Q9H0H5
Description: as §1

[73] = molecular target: RAE1, P78406
Description: as §1

[74] = molecular target: RBM14, Q96PK6
Description: as §1

[75] = molecular target: RBM27, Q9P2N5
Description: as §1

[76] = molecular target: RBM33, Q96EV2
Description: as §1

[77] = molecular target: RPUSD3, Q6P087
Description: as §1

[78] = molecular target: RRM1, P23921
Description: as §1

[79] = molecular target: RTCB, Q9Y3I0
Description: as §1

[80] = molecular target: RTRAF, Q9Y224
Description: as §1

[81] = molecular target: SAFB, Q15424
Description: as §1

[82] = molecular target: SAFB2, Q14151
Description: as §1

[83] = molecular target: SDF2L1, Q9HCN8
Description: as §1

[84] = molecular target: SEH1L, Q96EE3
Description: as §1

[85] = molecular target: SF1, Q15637
Description: as §1

[86] = molecular target: SFPQ, P23246
Description: as §1

[87] = molecular target: SLC9A3R2, Q15599
Description: as §1

[88] = molecular target: SLTM, Q9NWH9
Description: as §1

[89] = molecular target: SMARCA4, P51532
Description: as §1

[90] = molecular target: SMARCC1, Q92922
Description: as §1

B1: ASPN (peptide)
chain: MVDNFYF
- PRISMA enrichment of interactor (log2) [1]: 4.44
- PRISMA enrichment of interactor (log2) [2]: 5.34
- PRISMA enrichment of interactor (log2) [3]: 5.12
- PRISMA enrichment of interactor (log2) [4]: 5.05
- PRISMA enrichment of interactor (log2) [5]: 5.9
- PRISMA enrichment of interactor (log2) [6]: 6.73
- PRISMA enrichment of interactor (log2) [7]: 3.76
- PRISMA enrichment of interactor (log2) [8]: 5.26
- PRISMA enrichment of interactor (log2) [9]: 5.37
- PRISMA enrichment of interactor (log2) [10]: 5.2
- PRISMA enrichment of interactor (log2) [11]: 4.88
- PRISMA enrichment of interactor (log2) [12]: 5.92
- PRISMA enrichment of interactor (log2) [13]: 5.18
- PRISMA enrichment of interactor (log2) [14]: 3.93
- PRISMA enrichment of interactor (log2) [15]: 5.78
- PRISMA enrichment of interactor (log2) [16]: 5.73
- PRISMA enrichment of interactor (log2) [17]: 3.93
- PRISMA enrichment of interactor (log2) [18]: 4.83
- PRISMA enrichment of interactor (log2) [19]: 5.64 ± 1.8
- PRISMA enrichment of interactor (log2) [20]: 5.83
- PRISMA enrichment of interactor (log2) [21]: 4.6
- PRISMA enrichment of interactor (log2) [22]: 5.95
- PRISMA enrichment of interactor (log2) [23]: 6.45
- PRISMA enrichment of interactor (log2) [24]: 4.7
- PRISMA enrichment of interactor (log2) [25]: 4.07
- PRISMA enrichment of interactor (log2) [26]: 4.68
- PRISMA enrichment of interactor (log2) [27]: 4.23
- PRISMA enrichment of interactor (log2) [28]: 6.45
- PRISMA enrichment of interactor (log2) [29]: 6.56
- PRISMA enrichment of interactor (log2) [30]: 4.64
- PRISMA enrichment of interactor (log2) [31]: 4.37
- PRISMA enrichment of interactor (log2) [32]: 4.76
- PRISMA enrichment of interactor (log2) [33]: 4.68
- PRISMA enrichment of interactor (log2) [34]: 6.24
- PRISMA enrichment of interactor (log2) [35]: 6.24
- PRISMA enrichment of interactor (log2) [36]: 5.34
- PRISMA enrichment of interactor (log2) [37]: 6.52
- PRISMA enrichment of interactor (log2) [38]: 7.09
- PRISMA enrichment of interactor (log2) [39]: 4.43
- PRISMA enrichment of interactor (log2) [40]: 4.56
- PRISMA enrichment of interactor (log2) [41]: 5.64
- PRISMA enrichment of interactor (log2) [42]: 4.9
- PRISMA enrichment of interactor (log2) [43]: 5.86
- PRISMA enrichment of interactor (log2) [44]: 5.47
- PRISMA enrichment of interactor (log2) [45]: 6.02
- PRISMA enrichment of interactor (log2) [46]: 5.39
- PRISMA enrichment of interactor (log2) [47]: 9.28
- PRISMA enrichment of interactor (log2) [48]: 4.29
- PRISMA enrichment of interactor (log2) [49]: 4.97
- PRISMA enrichment of interactor (log2) [50]: 5.32
- PRISMA enrichment of interactor (log2) [51]: 6.63
- PRISMA enrichment of interactor (log2) [52]: 6.07
- PRISMA enrichment of interactor (log2) [53]: 5.87
- PRISMA enrichment of interactor (log2) [54]: 5.52
- PRISMA enrichment of interactor (log2) [55]: 5.88
- PRISMA enrichment of interactor (log2) [56]: 6.24
- PRISMA enrichment of interactor (log2) [57]: 5.88
- PRISMA enrichment of interactor (log2) [58]: 5.69
- PRISMA enrichment of interactor (log2) [59]: 7.3
- PRISMA enrichment of interactor (log2) [60]: 7.02
- PRISMA enrichment of interactor (log2) [61]: 4.89
- PRISMA enrichment of interactor (log2) [62]: 7.85
- PRISMA enrichment of interactor (log2) [63]: 7.05
- PRISMA enrichment of interactor (log2) [64]: 5.25
- PRISMA enrichment of interactor (log2) [65]: 5.09
- PRISMA enrichment of interactor (log2) [66]: 7.13
- PRISMA enrichment of interactor (log2) [67]: 4.2
- PRISMA enrichment of interactor (log2) [68]: 4.67
- PRISMA enrichment of interactor (log2) [69]: 8.66
- PRISMA enrichment of interactor (log2) [70]: 7.86
- PRISMA enrichment of interactor (log2) [71]: 8.4
- PRISMA enrichment of interactor (log2) [72]: 4.22
- PRISMA enrichment of interactor (log2) [73]: 6.03
- PRISMA enrichment of interactor (log2) [74]: 6.36
- PRISMA enrichment of interactor (log2) [75]: 5.42
- PRISMA enrichment of interactor (log2) [76]: 6.99
- PRISMA enrichment of interactor (log2) [77]: 4.77
- PRISMA enrichment of interactor (log2) [78]: 5.19
- PRISMA enrichment of interactor (log2) [79]: 4.77
- PRISMA enrichment of interactor (log2) [80]: 5.33
- PRISMA enrichment of interactor (log2) [81]: 7.05
- PRISMA enrichment of interactor (log2) [82]: 6.11
- PRISMA enrichment of interactor (log2) [83]: 4.78
- PRISMA enrichment of interactor (log2) [84]: 4.98
- PRISMA enrichment of interactor (log2) [85]: 5.92
- PRISMA enrichment of interactor (log2) [86]: 6.15
- PRISMA enrichment of interactor (log2) [87]: 8.88
- PRISMA enrichment of interactor (log2) [88]: 5.73
- PRISMA enrichment of interactor (log2) [89]: 4.78
- PRISMA enrichment of interactor (log2) [90]: 5.68
